Publication doi:10.1101/2025.08.11.669663
These are yes or no findings as the source states them, for the method shown. In cells and extracts the contact can be indirect. Some entries that bind do so weakly or less than the wild type. Each block holds one binder with its values, some of them ahead of it.

The chains behind the UniProt entries cited, without tags or fusion partners.
UniProt P00441: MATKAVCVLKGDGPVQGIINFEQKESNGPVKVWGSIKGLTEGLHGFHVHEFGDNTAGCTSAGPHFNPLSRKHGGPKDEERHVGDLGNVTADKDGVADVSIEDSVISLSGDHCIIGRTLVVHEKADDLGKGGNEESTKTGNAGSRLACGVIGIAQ
UniProt P04406: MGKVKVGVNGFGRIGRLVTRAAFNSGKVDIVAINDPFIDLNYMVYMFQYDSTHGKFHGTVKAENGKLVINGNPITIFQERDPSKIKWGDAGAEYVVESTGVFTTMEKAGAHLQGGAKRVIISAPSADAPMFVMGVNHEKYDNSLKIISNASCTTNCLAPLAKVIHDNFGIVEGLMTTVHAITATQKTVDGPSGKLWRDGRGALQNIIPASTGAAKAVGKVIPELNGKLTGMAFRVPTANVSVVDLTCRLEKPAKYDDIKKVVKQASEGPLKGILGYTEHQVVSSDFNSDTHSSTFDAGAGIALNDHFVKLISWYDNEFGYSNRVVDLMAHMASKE

How the values were obtained:
Assay in all cases: proximity ligation
[1] = target: Cu/Zn superoxide dismutase (SOD1) (human (endogenous in HeLa)) (UniProt P00441)
[2] = target: T1, PRDX1 (human (endogenous in HeLa)) (UniProt Q06830)
T1 sequence: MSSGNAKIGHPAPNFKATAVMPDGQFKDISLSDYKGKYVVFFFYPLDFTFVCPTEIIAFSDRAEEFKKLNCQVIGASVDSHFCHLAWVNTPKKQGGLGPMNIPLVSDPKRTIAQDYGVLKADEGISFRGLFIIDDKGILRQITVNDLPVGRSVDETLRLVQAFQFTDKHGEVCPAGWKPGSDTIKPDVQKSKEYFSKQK

[3] = target: T2, catalase (CAT) (human (endogenous in HeLa)) (UniProt P04040)
T2 sequence: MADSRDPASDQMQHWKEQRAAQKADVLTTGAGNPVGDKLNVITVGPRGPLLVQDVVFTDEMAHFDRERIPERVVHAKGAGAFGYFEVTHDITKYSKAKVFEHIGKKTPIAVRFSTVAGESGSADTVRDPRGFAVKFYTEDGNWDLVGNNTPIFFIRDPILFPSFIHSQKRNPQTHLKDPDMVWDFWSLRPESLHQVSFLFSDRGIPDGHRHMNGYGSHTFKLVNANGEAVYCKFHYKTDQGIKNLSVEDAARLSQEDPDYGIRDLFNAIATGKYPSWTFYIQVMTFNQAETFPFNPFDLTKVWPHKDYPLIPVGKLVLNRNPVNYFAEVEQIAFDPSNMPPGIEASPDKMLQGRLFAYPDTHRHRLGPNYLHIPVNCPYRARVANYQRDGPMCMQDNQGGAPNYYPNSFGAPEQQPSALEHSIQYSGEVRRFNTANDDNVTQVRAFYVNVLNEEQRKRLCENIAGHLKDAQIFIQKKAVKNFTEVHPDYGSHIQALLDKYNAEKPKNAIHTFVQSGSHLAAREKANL

[4] = target: glyceraldehyde-3-phosphate dehydrogenase (GAPDH) (human (endogenous in HeLa)) (UniProt P04406)
[5] = target: T3, peroxiredoxin 2 (PRDX2) (human (endogenous in HeLa)) (UniProt P32119)
T3 sequence: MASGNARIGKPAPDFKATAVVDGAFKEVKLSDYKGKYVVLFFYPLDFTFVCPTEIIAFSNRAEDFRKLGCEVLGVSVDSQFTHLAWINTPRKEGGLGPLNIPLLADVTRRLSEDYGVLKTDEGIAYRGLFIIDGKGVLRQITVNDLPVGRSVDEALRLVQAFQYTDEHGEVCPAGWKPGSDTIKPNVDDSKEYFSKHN

[6] = target: T4, catalase (CAT) (human (endogenous in HeLa)), P04040; settings: remark: other sources report otherwise
T4 chain: T2 sequence

B2: PRDX6 (protein, UniProt P30041 1-224)
chain: MPGGLLLGDVAPNFEANTTVGRIRFHDFLGDSWGILFSHPRDFTPVCTTELGRAAKLAPEFAKRNVKLIALSIDSVEDHLAWSKDINAYNCEEPTEKLPFPIIDDRNRELAILLGMLDPAEKDEKGMPVTARVVFVFGPDKKLKLSILYPATTGRNFDEILRVVISLQLTAEKRVATPVDWKDGDSVMVLPTIPEEEAKKLFPKGVFTKELPSGKKYLRYTPQP
binding [2]: binds

B4: PRIM2 (a DNA primase subunit) (protein, UniProt P49643 1-509)
chain: MEFSGRKWRKLRLAGDQRNASYPHCLQFYLQPPSENISLIEFENLAIDRVKLLKSVENLGVSYVKGTEQYQSKLESELRKLKFSYRENLEDEYEPRRRDHISHFILRLAYCQSEELRRWFIQQEMDLLRFRFSILPKDKIQDFLKDSQLQFEAISDEEKTLREQEIVASSPSLSGLKLGFESIYKIPFADALDLFRGRKVYLEDGFAYVPLKDIVAIILNEFRAKLSKALALTARSLPAVQSDERLQPLLNHLSHSYTGQDYSTQGNVGKISLDQIDLLSTKSFPPCMRQLHKALRENHHLRHGGRMQYGLFLKGIGLTLEQALQFWKQEFIKGKMDPDKFDKGYSYNIRHSFGKEGKRTDYTPFSCLKIILSNPPSQGDYHGCPFRHSDPELLKQKLQSYKISPGGISQILDLVKGTHYQVACQKYFEMIHNVDDCGFSLNHPNQFFCESQRILNGGKDIKKEPIQPETPQPKPSVQKTKDASSALASLNSSLEMDMEGLEDYFSEDS
binding [5]: binds
binding [1]: binds
binding [3]: binds

B5: PRDX1, Q06830 1-199 (protein)
chain: T1 sequence
binding [6]: binds

Second part, the binder after the results:

binding [1]: binds
B1: catalase (CAT) (protein, UniProt P04040 1-527)
chain: T2 sequence

binding [3]: binds
binding [4]: binds
B3: TXN (protein, UniProt P10599 1-105)
chain: MVKQIESKTAFQEALDAAGDKLVVVDFSATWCGPCKMIKPFFHSLSEKYSNVIFLEVDVDDCQDVASECEVKCMPTFQFFKKGQKVGEFSGANKEKLEATINELV
